In article PMC6642134, “Dopey1-Mon2 complex binds to dual-lipids and recruits kinesin-1 for membrane trafficking” (Nature Communications, 2019) one finds binding data, which are given here for four molecules.

The chains behind the UniProt entries cited, without tags or fusion partners.
UniProt Q9H0B6: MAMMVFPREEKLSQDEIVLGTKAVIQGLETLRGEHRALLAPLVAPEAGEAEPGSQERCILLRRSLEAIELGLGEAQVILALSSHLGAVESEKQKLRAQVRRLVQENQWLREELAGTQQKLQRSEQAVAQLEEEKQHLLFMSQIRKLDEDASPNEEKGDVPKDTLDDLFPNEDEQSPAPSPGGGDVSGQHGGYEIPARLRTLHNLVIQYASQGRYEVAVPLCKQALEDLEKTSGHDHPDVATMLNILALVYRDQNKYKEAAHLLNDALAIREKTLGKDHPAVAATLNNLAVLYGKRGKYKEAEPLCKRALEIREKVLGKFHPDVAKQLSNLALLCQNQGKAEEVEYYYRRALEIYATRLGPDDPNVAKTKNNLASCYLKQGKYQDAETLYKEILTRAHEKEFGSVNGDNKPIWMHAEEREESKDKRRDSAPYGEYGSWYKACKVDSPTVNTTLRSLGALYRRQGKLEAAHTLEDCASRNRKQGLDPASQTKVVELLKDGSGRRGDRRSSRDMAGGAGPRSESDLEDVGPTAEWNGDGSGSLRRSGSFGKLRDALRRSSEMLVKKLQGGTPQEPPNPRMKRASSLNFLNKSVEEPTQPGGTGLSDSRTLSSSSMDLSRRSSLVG
UniProt Q9Y3R5: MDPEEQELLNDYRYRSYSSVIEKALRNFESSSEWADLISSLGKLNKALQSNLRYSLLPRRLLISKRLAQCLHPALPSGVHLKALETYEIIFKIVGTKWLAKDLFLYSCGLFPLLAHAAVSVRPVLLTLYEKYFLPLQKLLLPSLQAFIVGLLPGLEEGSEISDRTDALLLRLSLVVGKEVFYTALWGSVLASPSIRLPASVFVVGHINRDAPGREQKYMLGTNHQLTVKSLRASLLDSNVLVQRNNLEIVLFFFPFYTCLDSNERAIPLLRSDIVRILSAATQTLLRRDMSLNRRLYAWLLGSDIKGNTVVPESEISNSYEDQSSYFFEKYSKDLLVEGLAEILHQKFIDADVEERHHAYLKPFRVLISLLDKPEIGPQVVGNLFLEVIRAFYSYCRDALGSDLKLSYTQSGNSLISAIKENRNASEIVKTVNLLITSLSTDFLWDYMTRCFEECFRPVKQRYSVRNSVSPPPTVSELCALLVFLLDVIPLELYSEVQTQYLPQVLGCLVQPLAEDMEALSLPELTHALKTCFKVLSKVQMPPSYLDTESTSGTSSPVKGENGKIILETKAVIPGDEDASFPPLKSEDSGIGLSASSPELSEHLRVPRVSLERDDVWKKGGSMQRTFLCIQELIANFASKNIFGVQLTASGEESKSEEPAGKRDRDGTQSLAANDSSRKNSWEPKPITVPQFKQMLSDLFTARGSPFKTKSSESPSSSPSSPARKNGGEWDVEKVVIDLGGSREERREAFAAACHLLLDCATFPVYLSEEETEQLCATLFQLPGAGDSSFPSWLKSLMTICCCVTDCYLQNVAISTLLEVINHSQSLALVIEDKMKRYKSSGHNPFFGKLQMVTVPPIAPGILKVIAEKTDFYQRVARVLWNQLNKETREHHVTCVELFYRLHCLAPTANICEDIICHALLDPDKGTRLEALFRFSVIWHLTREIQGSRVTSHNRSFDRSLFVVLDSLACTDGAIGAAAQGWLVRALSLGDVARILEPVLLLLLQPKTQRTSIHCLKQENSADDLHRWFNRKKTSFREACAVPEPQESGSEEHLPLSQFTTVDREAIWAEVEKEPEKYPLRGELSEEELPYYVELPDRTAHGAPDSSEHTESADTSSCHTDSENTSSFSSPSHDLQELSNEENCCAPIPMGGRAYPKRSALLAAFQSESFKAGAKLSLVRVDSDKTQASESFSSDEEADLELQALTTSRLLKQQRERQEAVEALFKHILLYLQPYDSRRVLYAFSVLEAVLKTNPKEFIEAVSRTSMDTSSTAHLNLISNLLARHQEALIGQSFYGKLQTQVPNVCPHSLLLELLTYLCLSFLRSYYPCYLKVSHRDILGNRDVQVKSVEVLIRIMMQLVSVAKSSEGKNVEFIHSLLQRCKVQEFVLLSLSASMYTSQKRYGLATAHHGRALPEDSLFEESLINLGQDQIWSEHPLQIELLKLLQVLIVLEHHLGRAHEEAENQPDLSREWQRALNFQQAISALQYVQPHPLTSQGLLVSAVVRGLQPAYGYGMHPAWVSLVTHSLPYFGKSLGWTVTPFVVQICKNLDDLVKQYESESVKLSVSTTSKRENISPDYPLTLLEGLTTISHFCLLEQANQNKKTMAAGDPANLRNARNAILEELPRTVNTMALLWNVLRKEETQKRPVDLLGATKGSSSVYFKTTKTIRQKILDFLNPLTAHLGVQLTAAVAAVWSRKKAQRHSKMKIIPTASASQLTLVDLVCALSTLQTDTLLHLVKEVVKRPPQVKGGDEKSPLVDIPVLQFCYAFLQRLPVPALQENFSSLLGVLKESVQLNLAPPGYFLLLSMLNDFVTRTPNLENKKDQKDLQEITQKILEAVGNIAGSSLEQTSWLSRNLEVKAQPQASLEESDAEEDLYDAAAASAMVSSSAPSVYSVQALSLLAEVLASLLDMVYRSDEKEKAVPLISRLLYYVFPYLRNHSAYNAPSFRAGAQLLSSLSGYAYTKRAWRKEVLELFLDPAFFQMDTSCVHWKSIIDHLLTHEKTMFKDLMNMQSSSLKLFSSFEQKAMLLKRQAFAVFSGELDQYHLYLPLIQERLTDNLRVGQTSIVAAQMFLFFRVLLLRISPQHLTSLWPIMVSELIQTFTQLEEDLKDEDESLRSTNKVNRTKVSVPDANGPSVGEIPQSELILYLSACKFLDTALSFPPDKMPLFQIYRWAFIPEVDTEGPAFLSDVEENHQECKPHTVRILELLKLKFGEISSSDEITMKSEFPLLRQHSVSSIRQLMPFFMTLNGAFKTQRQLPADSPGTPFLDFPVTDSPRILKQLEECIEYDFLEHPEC
UniProt P33176: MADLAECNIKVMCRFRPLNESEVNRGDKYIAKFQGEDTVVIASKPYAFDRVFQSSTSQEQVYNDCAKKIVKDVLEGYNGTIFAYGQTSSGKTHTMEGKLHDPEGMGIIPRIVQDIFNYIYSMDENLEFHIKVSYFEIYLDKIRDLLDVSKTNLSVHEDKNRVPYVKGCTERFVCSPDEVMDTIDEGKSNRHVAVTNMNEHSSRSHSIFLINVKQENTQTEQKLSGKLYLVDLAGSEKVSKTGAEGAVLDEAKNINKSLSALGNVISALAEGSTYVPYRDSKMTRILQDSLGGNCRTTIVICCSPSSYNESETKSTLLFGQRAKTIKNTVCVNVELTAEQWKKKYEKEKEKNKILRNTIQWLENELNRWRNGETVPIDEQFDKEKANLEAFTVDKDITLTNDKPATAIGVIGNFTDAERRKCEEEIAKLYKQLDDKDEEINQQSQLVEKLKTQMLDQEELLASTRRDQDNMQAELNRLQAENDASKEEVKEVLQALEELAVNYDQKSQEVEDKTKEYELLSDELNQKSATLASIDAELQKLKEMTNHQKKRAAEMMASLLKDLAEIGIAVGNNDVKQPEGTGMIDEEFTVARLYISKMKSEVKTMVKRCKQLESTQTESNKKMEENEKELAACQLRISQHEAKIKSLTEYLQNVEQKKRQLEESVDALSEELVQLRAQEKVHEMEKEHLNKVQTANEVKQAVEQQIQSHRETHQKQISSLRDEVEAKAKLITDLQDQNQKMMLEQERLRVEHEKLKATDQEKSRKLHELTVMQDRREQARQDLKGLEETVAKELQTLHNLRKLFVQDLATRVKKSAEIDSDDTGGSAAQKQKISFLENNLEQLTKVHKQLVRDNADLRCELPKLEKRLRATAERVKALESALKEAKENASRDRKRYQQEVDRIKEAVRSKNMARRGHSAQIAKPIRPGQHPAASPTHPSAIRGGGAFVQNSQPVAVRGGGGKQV

The target of assay [1] is KLC2 (kinesin light chain 2), transfected (UniProt Q9H0B6). The assay is described as follows: co-IP; tagged proteins co-expressed in HEK293T, lysate in 40 mM HEPES pH 7.3, 100 mM NaCl, 0.1 or 1% Triton X-100; IP with antibody and Protein A/G beads or GFP-Trap beads, immunoblot. A general note: Immunoblotting shows a protein as a band on a membrane.
For assay [2], the target named is T1, Mon2 extreme C-terminal region (MEC), cell-expressed (UniProt Q7Z3U7).
T1 sequence: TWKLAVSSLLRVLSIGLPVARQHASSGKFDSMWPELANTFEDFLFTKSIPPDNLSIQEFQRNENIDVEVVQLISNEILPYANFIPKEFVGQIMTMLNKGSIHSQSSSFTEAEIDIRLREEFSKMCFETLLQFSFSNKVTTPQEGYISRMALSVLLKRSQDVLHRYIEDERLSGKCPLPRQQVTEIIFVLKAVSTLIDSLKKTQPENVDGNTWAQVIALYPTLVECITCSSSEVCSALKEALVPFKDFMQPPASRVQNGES
Described as above.

In assay [3] the target is Mon2, full length, transfected (UniProt Q7Z3U7). Described as above.
Assay [4] addresses T2, Dopey1 extreme N-terminal region (DEN), Dopey1(1–148), transfected (human) (UniProt B2RWN9).
T2 sequence: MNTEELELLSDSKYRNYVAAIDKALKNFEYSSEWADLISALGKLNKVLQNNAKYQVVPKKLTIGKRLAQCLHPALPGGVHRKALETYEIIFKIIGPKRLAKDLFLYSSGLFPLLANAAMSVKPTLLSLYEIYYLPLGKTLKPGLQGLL
Described as above.

For assay [5], the target named is Dopey1, full length, transfected (human) (UniProt B2RWN9). The description is as above.
The target is the same in assay [6]. In words: co-sedimentation; liposome pull-down: base (PI) or PI4P liposomes with HEK293T lysates holding combinations of Flag-KLC2, GFP-Dopey1 and FP-Mon2, 1 h at room temperature, liposomes pelleted, immunoblot.
For assay [7], the target named is Dopey2 (endogenous) (human (endogenous in HEK293T)) (UniProt Q9Y3R5). In words: co-IP; endogenous proteins, HEK293T lysate; IP with Mon2, Dopey1 or Dopey2 antibody, immunoblot.
In assay [8] the target is Dopey1 (endogenous) (human (endogenous in HEK293T)) (UniProt B2RWN9). The assay is described as above.

These are yes or no findings as the source states them, for the method shown. In cells and extracts the contact can be indirect. Some results given as binding are weak or reduced against the parent protein; the word gives no strength.

As to “Dopey1, full length, transfected (from UniProt B2RWN9 1-2456)”, the binding result in assay [1], in assay [2] and in assay [3] was “binds” each time.
Turning to “KLC2 (kinesin light chain 2), transfected (from UniProt Q9H0B6 1-622)”, the binding entry in assay [4], in assay [5] and in assay [6] was “binds” throughout.
For “Kif5b, the heavy chain of kinesin-1 (endogenous) (from UniProt P33176 1-963)”, the binding entry in assay [7] was “no binding”.

B1: Kif18a (endogenous) (protein, UniProt Q8NI77 1-898)
chain: MSVTEEDLCHHMKVVVRVRPENTKEKAAGFHKVVHVVDKHILVFDPKQEEVSFFHGKKTTNQNVIKKQNKDLKFVFDAVFDETSTQSEVFEHTTKPILRSFLNGYNCTVLAYGATGAGKTHTMLGSADEPGVMYLTMLHLYKCMDEIKEEKICSTAVSYLEVYNEQIRDLLVNSGPLAVREDTQKGVVVHGLTLHQPKSSEEILHLLDNGNKNRTQHPTDMNATSSRSHAVFQIYLRQQDKTASINQNVRIAKMSLIDLAGSERASTSGAKGTRFVEGTNINRSLLALGNVINALADSKRKNQHIPYRNSKLTRLLKDSLGGNCQTIMIAAVSPSSVFYDDTYNTLKYANRAKDIKSSLKSNVLNVNNHITQYVKICNEQKAEILLLKEKLKAYEEQKAFTNENDQAKLMISNPQEKEIERFQEILNCLFQNREEIRQEYLKLEMLLKENELKSFYQQQCHKQIEMMCSEDKVEKATGKRDHRLAMLKTRRSYLEKRREEELKQFDENTNWLHRVEKEMGLLSQNGHIPKELKKDLHCHHLHLQNKDLKAQIRHMMDLACLQEQQHRQTEAVLNALLPTLRKQYCTLKEAGLSNAAFESDFKEIEHLVERKKVVVWADQTAEQPKQNDLPGISVLMTFPQLGPVQPIPCCSSSGGTNLVKIPTEKRTRRKLMPSPLKGQHTLKSPPSQSVQLNDSLSKELQPIVYTPEDCRKAFQNPSTVTLMKPSSFTTSFQAISSNINSDNCLKMLCEVAIPHNRRKECGQEDLDSTFTICEDIKSSKCKLPEQESLPNDNKDILQRLDPSSFSTKHSMPVPSMVPSYMAMTTAAKRKRKLTSSTSNSSLTADVNSGFAKRVRQDNSSEKHLQENKPTMEHKRNICKINPSMVRKFGRNISKGNLR
B1: in assay [8], the binding result is recorded as “no binding”.
